Assay results taken from the supplement of paper PMC3334620.
In all, about 33,000 sequences were measured (“E-score (-0.5 to 0.5)”: median about -0.016, highest 2% from about 0.3 on). Some of the results follow.

molecular target: T1, Yer184c (UniProt P39961); experiment: PBM E-score (8-mer binding enrichment) (E-score (-0.5 to 0.5)); higher = stronger / more preferred TF binding; settings: protein concentration: 100 nM; construct: GST-full length
T1 sequence: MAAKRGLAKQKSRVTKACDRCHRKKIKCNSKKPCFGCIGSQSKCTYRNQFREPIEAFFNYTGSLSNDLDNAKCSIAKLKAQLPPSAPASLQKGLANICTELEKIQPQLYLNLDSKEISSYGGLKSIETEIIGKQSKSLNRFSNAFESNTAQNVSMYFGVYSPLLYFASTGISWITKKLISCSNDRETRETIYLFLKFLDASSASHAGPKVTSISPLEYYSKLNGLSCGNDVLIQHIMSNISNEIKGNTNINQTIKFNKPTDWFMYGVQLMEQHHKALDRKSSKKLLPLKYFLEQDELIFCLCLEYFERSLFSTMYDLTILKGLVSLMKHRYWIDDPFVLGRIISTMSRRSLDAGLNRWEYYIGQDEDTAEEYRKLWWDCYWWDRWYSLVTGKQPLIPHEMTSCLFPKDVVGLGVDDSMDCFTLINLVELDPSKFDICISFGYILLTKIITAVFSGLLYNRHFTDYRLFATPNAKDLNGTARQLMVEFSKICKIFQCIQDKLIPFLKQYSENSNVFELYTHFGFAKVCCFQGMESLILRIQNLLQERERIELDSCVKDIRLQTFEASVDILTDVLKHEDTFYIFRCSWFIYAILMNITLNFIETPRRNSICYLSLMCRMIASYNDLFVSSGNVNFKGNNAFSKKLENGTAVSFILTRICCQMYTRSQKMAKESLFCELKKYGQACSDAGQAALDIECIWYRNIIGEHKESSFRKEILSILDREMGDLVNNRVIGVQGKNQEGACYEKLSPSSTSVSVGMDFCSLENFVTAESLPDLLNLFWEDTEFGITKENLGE
Method: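 Universal 'all 10-mer' protein binding microarrays (Agilent AMADID 015681) probed with GST-tagged S. cerevisiae TFs (full-length or DBD) made by in vitro transcription/translation (PURExpress), about 100-200 nM. Bound TF was detected with fluorescent anti-GST. Each ungapped 8-mer (which stands for itself and its reverse complement) is scored by the PBM enrichment score (E-score), a modified Wilcoxon-Mann-Whitney statistic from -0.5 to +0.5, computed with the Universal PBM Analysis Suite. Scale: above 0.35 generally sequence-specific binding.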

| Sequence | PBM E-score |
| --- | --- |
| ATGTCCAC | -0.0872 |
| ATCCTATA | -0.0164 |
| CGATAATC | -0.0814 |
| ACGTCACC | -0.219 |
| AGCGGGTG | -0.187 |
| GATTACAC | 0.0435 |
| ACCTTCAC | -0.132 |
| ATATTATC | 0.202 |
| GCAAGGGA | -0.235 |
| AGTCGCTA | -0.185 |
| CATAGCCA | -0.125 |
| CTAGGCCC | -0.287 |
| AGCGAGCA | -0.0248 |
| GTCGCCTA | -0.157 |
| CCACGGAC | -0.00729 |
| CGAGCCAA | -0.014 |
| ACACCAGG | -0.0909 |
| CTCGCTCC | -0.0425 |
| AAATCAAC | -0.0185 |
| AGGTATTC | 0.0402 |
| ACGCGGGC | 0.025 |
| AATACGCA | -0.13 |
| GACGCCTC | -0.061 |
| GGGAATTA | 0.151 |
| CACTCTAA | -0.0551 |

| Sequence | PBM E-score |
| --- | --- |
| ACCGTTAC | -0.0242 |
| GCAGTTAC | 0.0774 |
| CATTATAG | 0.0733 |
| CGAATGAC | 0.239 |
| GTAAAGAA | 0.177 |
| CATTTAAG | -0.0595 |
| CGTAGCTC | -0.0585 |
| AAGAAGGC | -0.231 |
| TCGATTCA | -0.0147 |
| CCTCATCA | -0.0278 |
| GTTACAGA | -0.174 |
| ATCTCTCG | 0.116 |
| CCCACGCC | -0.194 |
| ATACGAAT | 0.0699 |
| GCATAGCA | -0.0886 |
| AGGTGCAC | -0.148 |
| AAGTTTAT | 0.177 |
| GACCTTGC | -0.14 |
| AGATCATA | 0.0944 |
| CCGCAAGA | 0.11 |
| ACAGAAAA | 0.253 |
| AATATAGA | 0.181 |
| AAACTCCT | -0.18 |
| CACTACTA | 0.0715 |
| ATTCGCAA | 0.128 |

| Sequence | PBM E-score |
| --- | --- |
| AAAGGCAA | -0.0472 |
| CACCCATG | -0.214 |
| GGGGTCTA | 0.0612 |
| GTATCCCA | -0.0951 |
| AAGGTTAT | 0.0308 |
| AACCGAGT | 0.0155 |
| CAAAGCTG | 0.0917 |
| CCTGCGTA | -0.0742 |
| AACTGTTA | 0.0489 |
| CAATAAGC | 0.0333 |
| AGTAGTAC | 0.193 |
| ATATGAGC | -0.0199 |
| GGCATACC | -0.214 |
| AGTGCGTG | 0.00693 |
| GACCGAAC | 0.33 |
| ATGAGACA | 0.0383 |
| GCATCGCC | 0.0483 |
| GGCAAAGA | 0.179 |
| ACACGTCG | -0.206 |
| GAGTGGCC | -0.0531 |
| AATGGTTC | 0.0961 |
| ACGCCTGA | 0.0672 |
| GTGACTTA | -0.0935 |
| CATTTGGC | 0.16 |
| AAGGTAAG | -0.0997 |

| Sequence | PBM E-score |
| --- | --- |
| TATGCGCA | -0.133 |
| ATGACTTC | -0.0148 |
| CGCAAGCC | 0.0164 |
| ACTTTCCT | -0.192 |
| GACGGCAA | 0.148 |
| TAACCCAA | 0.0728 |
| CGTCGAGC | 0.0409 |
| TCATGGCA | 0.0078 |
| AGTAAGGA | -0.038 |
| CCCAATTC | 0.138 |
| GGCAGGGA | -0.0696 |
| CAATCGCG | -0.142 |
| ACGCGACC | -0.116 |
| ACCATGTC | -0.123 |
| CGGTTTTA | 0.225 |
| CATTCCCC | -0.0977 |
| CTGCTATA | 0.023 |
| GCGTGACA | 0.02 |
| CCTAAGCA | -0.098 |
| GAAATGCA | 0.0215 |
| GCGCTGCC | -0.154 |
| CAATCGAG | -0.226 |
| GGTAATTA | 0.243 |
| GACATGAC | -0.169 |
| CCGAATTC | 0.334 |

Reprinted at random: 5 records from the list.

| Sequence | PBM E-score |
| --- | --- |
| CAATCGCG | -0.142 |
| GAAATGCA | 0.0215 |
| CGGTTTTA | 0.225 |
| CTGCTATA | 0.023 |
| TAACCCAA | 0.0728 |

(continued)

| Sequence | PBM E-score |
| --- | --- |
| AAGCTCTA | -0.0562 |
| ATCACGGG | -0.164 |
| CGACGGCA | -0.101 |
| CGCTGGAA | 0.0192 |
| GGAAGTAA | 0.0987 |
| AGCAGTCC | -0.0967 |
| CGCGCTGA | -0.0318 |
| GACATTCA | 0.00052 |
| ATAGATAC | 0.0299 |
| TTACTGAA | 0.164 |
| GTACACGA | 0.0442 |
| CCGTATGA | 0.219 |
| TCTGCTCA | -0.201 |
| CAAAAGGG | -0.101 |
| GAAAAGAC | 0.191 |
| CGCCTTAC | -0.179 |
| CTAAGACA | -0.0196 |
| GACAAATC | 0.0451 |
| CCGGTTTC | 0.244 |
| GAAAAAAA | 0.223 |
| AGGCCCTG | -0.328 |
| AACCCGCG | 0.226 |
| CCCCGACG | -0.0191 |
| AACATGTG | 0.104 |
| CGGTGACA | 0.224 |

| Sequence | PBM E-score |
| --- | --- |
| CATAGCAC | 0.00647 |
| CTAAACAG | 0.0321 |
| CTAGACGC | -0.176 |
| CTAAAGAG | -0.142 |
| CTTATTTC | 0.184 |
| ATTACTTA | 0.148 |
| CGTTACCA | -0.138 |
| CCGTACCA | 0.166 |
| GTCATAAC | -0.123 |
| CCACCGGG | -0.00255 |
| CATTTAAA | 0.271 |
| CCGGTTTA | 0.176 |
| AGGCCAGA | -0.0609 |
| AAAAGTGC | -0.11 |
| GAATCATA | 0.103 |
| CATCACTA | 0.0525 |
| GATTTACA | 0.194 |
| AGTTTTTG | 0.224 |
| GCACCGAC | 0.0749 |
| CACTACGA | 0.185 |
| GAAGCTGA | 0.21 |
| GGATTAGA | -0.117 |
| AGATAACG | 0.0284 |
| GGCAGGAC | -0.117 |
| GCCTCCCA | -0.3 |

| Sequence | PBM E-score |
| --- | --- |
| GAACGACA | 0.0411 |
| CACTGTAC | -0.31 |
| CATAATGC | -0.0707 |
| ACGTTGCT | -0.0994 |
| AATTAGCC | 0.113 |
| AGATTATG | -0.0137 |
| AGCGTGGG | -0.269 |
| CCATCCCC | -0.24 |
| ACATCATA | 0.123 |
| CACATGCG | -0.074 |
| CTCTTAGA | 0.0666 |
| AGAAAAAC | 0.154 |
| TCGTCACA | 0.00564 |
| CCGGTCCC | 0.0884 |
| ATTACGAG | -0.116 |
| GTGAGCCA | -0.175 |
| CAATGGAA | 0.154 |
| ATAAATAA | 0.279 |
| CCTCTTCA | -0.18 |
| ATAAGTAA | 0.0957 |
| CGGGATCC | 0.269 |
| CCGTGAAA | 0.2 |
